The other results are listed elsewhere or left out. Small differences around the control level are noise.
Compound: CN[C@@H]1C[C@H]2O[C@@](C)([C@@H]1OC)n1c3ccccc3c3c4c(c5c6ccccc6n2c5c31)C(=O)NC4 [staurosporine]
Test: log2 fold change of tryptic peptide abundance, ligand vs vehicle (limited proteolysis) (log2 ratio); higher = more trypsin-susceptible (destabilized)
Settings: ligand concentration: 20 uM; sample: K562 cleared lysate; digestion: 4 min, 22 C (HT-PELSA RT4min, Orbitrap Astral)

The chains behind the UniProt entries cited, without tags or fusion partners. Where a name states a change or a piece, a line headed by the entry shows the natural chain unless it says otherwise.
UniProt P56270: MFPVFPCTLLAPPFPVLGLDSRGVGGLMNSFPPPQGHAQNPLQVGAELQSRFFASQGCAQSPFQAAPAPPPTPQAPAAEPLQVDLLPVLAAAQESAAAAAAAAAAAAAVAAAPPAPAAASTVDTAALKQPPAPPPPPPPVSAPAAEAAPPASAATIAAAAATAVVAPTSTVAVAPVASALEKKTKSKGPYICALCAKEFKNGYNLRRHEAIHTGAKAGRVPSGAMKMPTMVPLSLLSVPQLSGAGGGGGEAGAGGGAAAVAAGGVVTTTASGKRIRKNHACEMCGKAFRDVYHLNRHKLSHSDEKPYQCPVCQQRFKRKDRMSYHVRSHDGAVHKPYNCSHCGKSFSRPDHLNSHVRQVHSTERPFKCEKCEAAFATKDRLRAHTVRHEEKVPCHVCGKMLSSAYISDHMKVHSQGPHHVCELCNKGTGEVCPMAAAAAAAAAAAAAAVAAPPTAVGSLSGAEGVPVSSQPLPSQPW
UniProt P78549: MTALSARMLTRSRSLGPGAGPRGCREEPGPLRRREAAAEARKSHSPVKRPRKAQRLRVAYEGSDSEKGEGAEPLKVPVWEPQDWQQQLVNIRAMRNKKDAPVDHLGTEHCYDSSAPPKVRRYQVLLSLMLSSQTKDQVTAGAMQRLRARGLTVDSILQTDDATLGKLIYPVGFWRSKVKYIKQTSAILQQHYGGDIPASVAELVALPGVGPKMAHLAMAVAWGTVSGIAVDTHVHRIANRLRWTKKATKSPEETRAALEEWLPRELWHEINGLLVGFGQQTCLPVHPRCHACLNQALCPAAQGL
UniProt P62140, whole entry: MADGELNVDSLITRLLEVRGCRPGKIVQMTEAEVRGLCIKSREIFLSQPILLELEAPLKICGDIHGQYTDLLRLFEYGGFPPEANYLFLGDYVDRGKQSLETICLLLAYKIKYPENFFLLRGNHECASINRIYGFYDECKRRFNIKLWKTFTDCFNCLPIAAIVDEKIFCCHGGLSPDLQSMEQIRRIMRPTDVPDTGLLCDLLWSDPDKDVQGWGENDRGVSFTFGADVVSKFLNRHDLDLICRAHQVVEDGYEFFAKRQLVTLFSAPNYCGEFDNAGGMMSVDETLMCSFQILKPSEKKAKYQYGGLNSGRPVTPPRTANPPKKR
UniProt P68371, whole entry: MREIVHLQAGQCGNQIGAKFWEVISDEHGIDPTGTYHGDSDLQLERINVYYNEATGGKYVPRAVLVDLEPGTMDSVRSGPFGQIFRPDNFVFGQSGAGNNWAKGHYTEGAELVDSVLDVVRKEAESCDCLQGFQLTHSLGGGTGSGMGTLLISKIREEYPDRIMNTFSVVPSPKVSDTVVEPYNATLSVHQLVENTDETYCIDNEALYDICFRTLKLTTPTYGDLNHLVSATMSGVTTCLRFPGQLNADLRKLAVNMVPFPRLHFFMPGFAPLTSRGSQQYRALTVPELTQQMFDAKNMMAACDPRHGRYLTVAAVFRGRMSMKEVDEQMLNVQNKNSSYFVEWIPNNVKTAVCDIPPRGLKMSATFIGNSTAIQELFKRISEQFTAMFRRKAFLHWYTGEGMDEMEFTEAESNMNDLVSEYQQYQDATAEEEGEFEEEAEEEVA
UniProt P55265: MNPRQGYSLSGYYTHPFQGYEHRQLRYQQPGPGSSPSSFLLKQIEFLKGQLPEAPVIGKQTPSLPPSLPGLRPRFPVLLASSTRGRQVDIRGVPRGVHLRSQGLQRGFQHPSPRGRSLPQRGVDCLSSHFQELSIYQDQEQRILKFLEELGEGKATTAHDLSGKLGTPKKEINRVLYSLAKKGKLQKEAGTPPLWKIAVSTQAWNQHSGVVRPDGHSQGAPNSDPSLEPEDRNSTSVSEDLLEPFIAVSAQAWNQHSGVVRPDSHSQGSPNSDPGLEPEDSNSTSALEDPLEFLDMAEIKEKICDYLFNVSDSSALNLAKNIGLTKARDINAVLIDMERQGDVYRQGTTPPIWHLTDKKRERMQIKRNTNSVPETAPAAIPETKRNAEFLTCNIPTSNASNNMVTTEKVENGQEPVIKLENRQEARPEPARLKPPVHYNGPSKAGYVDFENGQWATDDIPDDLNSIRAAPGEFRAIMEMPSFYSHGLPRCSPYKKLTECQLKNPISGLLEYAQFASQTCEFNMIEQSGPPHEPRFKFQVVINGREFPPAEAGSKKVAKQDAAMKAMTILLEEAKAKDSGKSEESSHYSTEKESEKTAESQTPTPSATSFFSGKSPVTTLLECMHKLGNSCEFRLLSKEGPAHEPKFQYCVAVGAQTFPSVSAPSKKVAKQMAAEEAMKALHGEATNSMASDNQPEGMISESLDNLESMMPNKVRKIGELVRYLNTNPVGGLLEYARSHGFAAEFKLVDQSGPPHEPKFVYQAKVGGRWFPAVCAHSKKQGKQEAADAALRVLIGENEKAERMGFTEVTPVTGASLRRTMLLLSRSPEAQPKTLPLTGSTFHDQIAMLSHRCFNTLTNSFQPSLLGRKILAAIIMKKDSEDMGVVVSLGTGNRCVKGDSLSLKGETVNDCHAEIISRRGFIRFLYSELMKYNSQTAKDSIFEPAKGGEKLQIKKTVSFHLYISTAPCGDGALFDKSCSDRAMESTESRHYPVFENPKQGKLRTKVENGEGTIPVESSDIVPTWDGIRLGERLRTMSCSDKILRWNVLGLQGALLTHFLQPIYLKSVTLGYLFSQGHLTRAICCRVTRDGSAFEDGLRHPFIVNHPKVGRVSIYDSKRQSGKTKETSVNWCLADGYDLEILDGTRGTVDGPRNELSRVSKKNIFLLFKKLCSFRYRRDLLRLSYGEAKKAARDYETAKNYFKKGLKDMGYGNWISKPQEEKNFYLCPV
UniProt P55201: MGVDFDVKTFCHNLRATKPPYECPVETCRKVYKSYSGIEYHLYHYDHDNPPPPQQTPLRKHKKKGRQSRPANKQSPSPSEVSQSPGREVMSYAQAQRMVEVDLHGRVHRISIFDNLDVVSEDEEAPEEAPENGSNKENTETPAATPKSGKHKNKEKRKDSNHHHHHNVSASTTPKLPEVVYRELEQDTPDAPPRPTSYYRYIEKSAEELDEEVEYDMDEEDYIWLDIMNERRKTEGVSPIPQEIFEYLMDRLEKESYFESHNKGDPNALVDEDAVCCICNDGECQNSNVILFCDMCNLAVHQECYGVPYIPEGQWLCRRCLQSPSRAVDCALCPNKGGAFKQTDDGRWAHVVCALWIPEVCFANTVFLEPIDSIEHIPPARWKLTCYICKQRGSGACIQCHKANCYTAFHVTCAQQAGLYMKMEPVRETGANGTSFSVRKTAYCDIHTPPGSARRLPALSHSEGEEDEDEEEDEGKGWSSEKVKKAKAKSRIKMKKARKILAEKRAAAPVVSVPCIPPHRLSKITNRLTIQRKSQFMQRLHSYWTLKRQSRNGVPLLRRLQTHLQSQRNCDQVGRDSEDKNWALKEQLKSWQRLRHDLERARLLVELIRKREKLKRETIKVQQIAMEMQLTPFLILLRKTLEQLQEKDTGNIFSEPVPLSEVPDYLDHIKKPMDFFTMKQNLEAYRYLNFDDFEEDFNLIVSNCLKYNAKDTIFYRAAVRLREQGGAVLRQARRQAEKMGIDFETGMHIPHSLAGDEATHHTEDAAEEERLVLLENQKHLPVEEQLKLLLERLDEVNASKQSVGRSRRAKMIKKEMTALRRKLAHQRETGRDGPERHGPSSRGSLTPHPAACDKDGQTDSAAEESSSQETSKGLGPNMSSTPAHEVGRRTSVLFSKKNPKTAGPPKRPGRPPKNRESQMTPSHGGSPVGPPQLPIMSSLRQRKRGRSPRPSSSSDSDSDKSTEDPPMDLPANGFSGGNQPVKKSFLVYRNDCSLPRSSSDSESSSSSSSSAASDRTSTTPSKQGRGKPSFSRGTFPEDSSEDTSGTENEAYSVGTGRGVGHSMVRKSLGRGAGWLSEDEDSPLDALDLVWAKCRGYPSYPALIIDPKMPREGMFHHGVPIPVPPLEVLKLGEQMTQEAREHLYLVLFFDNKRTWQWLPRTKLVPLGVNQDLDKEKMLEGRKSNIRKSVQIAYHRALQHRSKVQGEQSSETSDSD

Target	log2 fold change
MAZ (peptide sequence: SFSRPDHLNSHVR, peptide start residue: 345) (UniProt P56270)	0.477
UniProt P62857 (peptide sequence: NVKGPVREGDVLTLLESER, peptide start residue: 45)	0.438
NTHL1 (peptide sequence: LIYPVGFWR, peptide start residue: 175) (UniProt P78549)	0.0912
UniProt P62140 (peptide sequence: FLNRHDLDLICR, peptide start residue: 234)	0.437
UniProt P68371 (peptide sequence: INVYYNEATGGKYVPR, peptide start residue: 47)	-0.0963
ADAR (peptide sequence: GQLPEAPVIGK, peptide start residue: 49) (UniProt P55265)	0.202
UniProt P55201 (peptide sequence: HLPVEEQLK, peptide start residue: 779)	-0.135
